PubChem BioAssay AID1508597, Cure First, 2020
Assay: 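Knock-downs altering ovarian cancer cell survival with or without PARP inhibitor rucaparib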 (primary screen). Cells: human ovarian carcinoma lines grown from tumours: OCI-P5x (papillary serous) and OCI-C5x (clear cell). Reagent: siRNA pool against human genes, 1.25 pmol siRNA per well. Timing: 72 h or 96 h, depending on the cell culture. Conditions: rucaparib 20 µM (about IC30) or vehicle, present until read-out. Rucaparib or vehicle: Vehicle. Cell line: OCI-C5x (clear cell). Read-out: 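Luminescent ATP-based viability assay read 72 or 96 h after transfection, depending on culture, given as normalised percent viability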. Reading the numbers: viability, normalised: higher = more viable cells remaining. Hit rule: 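Active when normalised viability falls below 80 percent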. Calls: active = viability under 80%; inactive = viability 80% or more.
Shown is an unselected part of the about 2,100 reagents, in one setting of the screen. 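Calls flag viability under 80% in either arm, not effects specific to rucaparib; the reference for percent is not stated.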 A reagent listed more than once was tested more than once; the source does not tell the runs apart. The record does not give: the 100% reference.

| Target gene | technical replicate | viability, normalised (%) | outcome |
| --- | --- | --- | --- |
| HMGN5 | 1 | 52.5 | active |
| HMGN5 | 2 | 77.7 | active |
| HMGN5 | 3 | 65.4 | active |
| FANCB | 1 | 47.1 | active |
| FANCB | 2 | 55.2 | active |
| FANCB | 3 | 59.1 | active |
| TJP3 | 1 | 44.5 | active |
| TJP3 | 2 | 72.7 | active |
| TJP3 | 3 | 38.4 | active |
| OGG1 | 1 | 74.6 | active |
| OGG1 | 2 | 58.7 | active |
| OGG1 | 3 | 56.9 | active |
| DPH2 | 1 | 59.1 | active |
| DPH2 | 2 | 61.1 | active |
| DPH2 | 3 | 46.7 | active |
| TRRAP | 1 | 22.5 | active |
| TRRAP | 1 | 75.7 | active |
| TRRAP | 1 | 55 | active |
| TRRAP | 2 | 30.3 | active |
| TRRAP | 2 | 55.6 | active |
| TRRAP | 2 | 51.5 | active |
| TRRAP | 3 | 41.3 | active |
| TRRAP | 3 | 40.6 | active |
| TRRAP | 3 | 68.6 | active |
| AAK1 | 1 | 44.5 | active |
| AAK1 | 2 | 44.8 | active |
| AAK1 | 3 | 57.7 | active |
| DDX19A | 1 | 46.5 | active |
| DDX19A | 2 | 57.1 | active |
| DDX19A | 3 | 66 | active |
| CDC42BPB | 1 | 68.5 | active |
| CDC42BPB | 2 | 62.4 | active |
| CDC42BPB | 3 | 40.9 | active |
| UTP3 | 1 | 43.5 | active |
| UTP3 | 2 | 37.8 | active |
| UTP3 | 3 | 52.8 | active |
| ZSCAN20 | 1 | 66.1 | active |
| ZSCAN20 | 2 | 65.2 | active |
| ZSCAN20 | 3 | 52.8 | active |
| PRDM11 | 1 | 40.6 | active |
| PRDM11 | 2 | 40.7 | active |
| PRDM11 | 3 | 36.7 | active |
| CSNK2A1 | 1 | 25.6 | active |
| CSNK2A1 | 1 | 62.7 | active |
| CSNK2A1 | 2 | 40.5 | active |
| CSNK2A1 | 2 | 60 | active |
| CSNK2A1 | 3 | 37.9 | active |
| CSNK2A1 | 3 | 39.9 | active |
| STING1 | 1 | 55.4 | active |
| STING1 | 2 | 46.3 | active |
| STING1 | 3 | 53.9 | active |
| KDM4C | 1 | 57.2 | active |
| KDM4C | 2 | 46.4 | active |
| KDM4C | 3 | 51.7 | active |
| CLDN6 | 1 | 55.7 | active |
| CLDN6 | 2 | 64.9 | active |
| CLDN6 | 3 | 54 | active |

5 successive records already listed, for reference:
| Target gene | technical replicate | viability, normalised (%) | outcome |
| --- | --- | --- | --- |
| HMGN5 | 3 | 65.4 | active |
| FANCB | 1 | 47.1 | active |
| FANCB | 2 | 55.2 | active |
| FANCB | 3 | 59.1 | active |
| TJP3 | 1 | 44.5 | active |
